Results: PMC12678476
Results are given in words; binding and its absence hold for the method and conditions named. In cells and extracts the contact can be indirect. These calls come from enrichment with a bait or labelling near it, and not all partners need be listed.

By UniProt entry, the sequences of proteins in these tests, tags left out.
UniProt P69905: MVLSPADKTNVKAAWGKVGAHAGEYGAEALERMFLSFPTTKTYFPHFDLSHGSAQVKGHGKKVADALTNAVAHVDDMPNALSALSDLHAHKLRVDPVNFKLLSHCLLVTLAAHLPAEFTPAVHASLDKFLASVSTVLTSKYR
UniProt Q96Q89: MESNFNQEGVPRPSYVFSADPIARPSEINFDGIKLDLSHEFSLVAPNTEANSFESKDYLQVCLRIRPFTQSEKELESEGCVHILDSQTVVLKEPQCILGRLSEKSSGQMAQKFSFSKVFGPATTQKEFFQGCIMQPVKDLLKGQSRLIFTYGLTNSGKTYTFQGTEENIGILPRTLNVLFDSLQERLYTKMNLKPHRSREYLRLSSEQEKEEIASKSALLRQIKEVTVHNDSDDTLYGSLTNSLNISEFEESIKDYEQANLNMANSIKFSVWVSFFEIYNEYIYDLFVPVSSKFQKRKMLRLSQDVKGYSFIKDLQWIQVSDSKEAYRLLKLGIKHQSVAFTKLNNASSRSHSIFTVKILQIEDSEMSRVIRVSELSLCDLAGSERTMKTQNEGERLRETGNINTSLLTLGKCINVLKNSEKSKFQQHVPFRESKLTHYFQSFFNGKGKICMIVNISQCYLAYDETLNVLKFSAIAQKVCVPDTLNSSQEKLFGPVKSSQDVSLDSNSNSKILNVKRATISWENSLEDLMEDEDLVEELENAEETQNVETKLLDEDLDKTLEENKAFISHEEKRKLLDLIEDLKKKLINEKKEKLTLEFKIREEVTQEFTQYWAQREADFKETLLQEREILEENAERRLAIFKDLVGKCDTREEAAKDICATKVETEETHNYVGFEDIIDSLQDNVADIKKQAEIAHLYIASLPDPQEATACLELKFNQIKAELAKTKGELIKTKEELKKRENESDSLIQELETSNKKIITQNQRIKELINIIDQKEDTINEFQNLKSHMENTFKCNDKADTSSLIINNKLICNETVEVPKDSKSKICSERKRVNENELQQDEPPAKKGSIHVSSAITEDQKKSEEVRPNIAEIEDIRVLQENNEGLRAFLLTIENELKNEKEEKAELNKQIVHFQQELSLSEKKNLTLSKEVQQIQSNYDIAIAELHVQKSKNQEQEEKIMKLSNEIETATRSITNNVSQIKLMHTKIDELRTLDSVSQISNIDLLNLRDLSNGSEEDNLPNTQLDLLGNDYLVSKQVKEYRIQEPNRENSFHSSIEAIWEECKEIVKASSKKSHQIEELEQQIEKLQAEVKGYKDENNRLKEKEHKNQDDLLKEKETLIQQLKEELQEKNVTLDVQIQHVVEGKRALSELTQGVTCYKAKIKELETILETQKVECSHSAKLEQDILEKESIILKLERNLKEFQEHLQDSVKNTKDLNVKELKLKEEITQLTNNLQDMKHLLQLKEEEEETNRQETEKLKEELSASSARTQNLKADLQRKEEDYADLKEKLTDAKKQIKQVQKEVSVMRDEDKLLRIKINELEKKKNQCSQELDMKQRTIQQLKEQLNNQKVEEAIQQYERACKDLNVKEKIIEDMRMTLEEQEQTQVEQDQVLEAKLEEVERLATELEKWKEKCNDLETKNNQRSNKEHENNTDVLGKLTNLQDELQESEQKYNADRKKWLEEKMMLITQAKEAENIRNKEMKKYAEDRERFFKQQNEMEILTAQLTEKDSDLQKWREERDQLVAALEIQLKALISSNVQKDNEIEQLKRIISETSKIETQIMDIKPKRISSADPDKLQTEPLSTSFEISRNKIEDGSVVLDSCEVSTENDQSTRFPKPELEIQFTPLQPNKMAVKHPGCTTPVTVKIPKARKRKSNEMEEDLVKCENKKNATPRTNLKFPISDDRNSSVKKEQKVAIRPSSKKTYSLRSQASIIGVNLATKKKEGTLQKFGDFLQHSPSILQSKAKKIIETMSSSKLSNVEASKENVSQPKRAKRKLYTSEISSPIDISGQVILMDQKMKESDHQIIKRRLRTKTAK

Molecular target: T1, tripartite motif-containing protein 10α (TRIM10α), endogenous (human (endogenous in HUDEP-2)) (UniProt Q9UDY6)
T1 sequence: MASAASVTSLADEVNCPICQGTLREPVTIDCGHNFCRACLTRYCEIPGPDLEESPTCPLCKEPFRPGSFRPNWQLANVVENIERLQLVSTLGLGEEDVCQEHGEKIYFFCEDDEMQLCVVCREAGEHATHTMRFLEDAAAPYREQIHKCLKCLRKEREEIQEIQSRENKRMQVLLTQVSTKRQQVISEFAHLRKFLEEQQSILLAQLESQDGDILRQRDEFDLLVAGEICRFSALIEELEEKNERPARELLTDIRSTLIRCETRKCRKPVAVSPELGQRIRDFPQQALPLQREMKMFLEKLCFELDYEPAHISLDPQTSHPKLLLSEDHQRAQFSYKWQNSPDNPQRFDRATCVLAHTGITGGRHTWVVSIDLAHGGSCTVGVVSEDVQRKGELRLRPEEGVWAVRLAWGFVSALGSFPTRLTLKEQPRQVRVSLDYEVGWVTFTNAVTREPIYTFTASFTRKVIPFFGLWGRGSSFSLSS
Assay: affinity purification with mass spectrometry; co-immunoprecipitation with anti-TRIM10α antibody from HUDEP-2 cells at differentiation days 0, 8 and 12; SDS-PAGE, silver staining, bands excised, tandem mass spectrometry

| binding | Substance |
| --- | --- |
| binds | Hb subunit alpha (HbA), endogenous (from UniProt P69905 1-142) |
| binds | KIF20B, a kinesin-6 family member, endogenous (from UniProt Q96Q89 1-1820) |
